Reference: doi:10.1101/2024.07.20.604396
Results are given in words; binding and its absence hold for the method and conditions named. Binding seen in cells or lysates may run through a third protein. A result given as binding can be weak or reduced; the word gives no strength.

Target: HA::Rab11
Assay: co-IP

binding: binds
B1: IER3IP1 (in HCT116 or HEK293 cells) (protein, UniProt Q9Y5U9 1-82)
chain: MAFTLYSLLQAALLCVNAIAVLHEERFLKNIGWGTDQGIGGFGEEPGIKSQLMNLIRSVRTVMRVPLIIVNSIAIVLLLLFG
